In PubChem BioAssay AID1347421 (Sanford-Burnham Center for Chemical Genomics, 2020) one finds activity data, which are given here for 108 compounds.

Protein sequences, listed by entry. Tags and fused reporters are not part of them. Lines headed by an entry give the natural chain unless they say otherwise; changes in a name come on top.
UniProt O00391: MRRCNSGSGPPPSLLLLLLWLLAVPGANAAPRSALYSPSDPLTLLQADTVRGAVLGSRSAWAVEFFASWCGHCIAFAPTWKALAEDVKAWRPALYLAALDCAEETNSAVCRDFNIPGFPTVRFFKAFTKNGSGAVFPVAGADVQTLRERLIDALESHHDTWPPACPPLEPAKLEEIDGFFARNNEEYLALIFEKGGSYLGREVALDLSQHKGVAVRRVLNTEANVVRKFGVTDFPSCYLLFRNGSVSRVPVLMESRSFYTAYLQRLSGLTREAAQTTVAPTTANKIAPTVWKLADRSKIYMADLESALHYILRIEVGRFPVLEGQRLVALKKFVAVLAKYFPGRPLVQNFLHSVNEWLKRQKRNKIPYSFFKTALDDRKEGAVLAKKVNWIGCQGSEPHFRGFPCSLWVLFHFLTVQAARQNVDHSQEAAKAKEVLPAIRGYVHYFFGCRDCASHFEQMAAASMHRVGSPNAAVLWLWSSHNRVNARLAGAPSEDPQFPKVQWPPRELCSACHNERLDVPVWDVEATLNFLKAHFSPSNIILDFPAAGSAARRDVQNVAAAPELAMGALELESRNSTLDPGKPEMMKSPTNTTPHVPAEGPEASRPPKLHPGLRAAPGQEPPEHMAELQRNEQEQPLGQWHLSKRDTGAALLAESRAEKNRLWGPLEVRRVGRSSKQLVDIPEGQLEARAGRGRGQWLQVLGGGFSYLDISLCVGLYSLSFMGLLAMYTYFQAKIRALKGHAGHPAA

Whole data set: some 1,500 compounds, median “activity” near 2, cut for the lowest 2% near -18. The list shows a part of the results. Active and inactive are the calls of the source.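 Rule for the calls: active = inhibition of at least 40% at 10 µM; inconclusive = no clear call, values can overlap the other calls; inactive = the rest.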

The assay deals with Sulfhydryl oxidase 1 (Homo sapiens) (UniProt O00391). In words: QSOX1 enzyme inhibitors, confirmation, biochemical, ROS-Glo luminescence, single concentration (AID 1347421).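 Note: 0% = DMSO wells with enzyme and 100% = wells lacking QSOX1 enzyme.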 As to conditions: recombinant hQSOX1, RNase A substrate, ROS-Glo H2O2 luminescence; at 10 µM.
`COc1ccc(OC)c(CN2CCOC(Cc3ccc(F)cc3)C2)c1` (stereo not drawn): the activity was 0.9%. Turning to `Cc1cccc(-n2cc(CN3CCN(C=O)CC3)c(-c3cccc(F)c3)n2)c1`, the activity came to 5.2%.

Regarding `Cc1noc(C)c1C(=O)NC1CCCCC1C(C)(C)C` (stereo not drawn), the activity is inactive: -0.5%. For the compound `Cc1cc(C)c(C)c(S(=O)(=O)n2nc(C)c(Cl)c2C)c1C`, the activity is inactive: -17.4%. With `O=c1c2ccccc2nc(NCCO)n1Cc1ccccc1` the figure was inactive: -20.3%. As to `Nc1ncnc(Nc2cc(Cl)cc(Cl)c2)n1`, the activity is inactive: -13.2%. In the case of `COCC1CCN(C(=O)c2ccc(OC3CCN(C4CCCC4)CC3)c(OC)c2)C1` (stereo not drawn) it was inactive: -1.3%; in that of `Cc1cc(C)n(CC(=O)NC2CCCN(C3CCCCCC3)C2)n1` (stereo not drawn), inactive: -3.4%.

Take `CC(NC(=O)CSc1nc(O)cc(=O)[nH]1)c1ccccc1` (stereo not drawn): the activity is inactive: -17.8%. With `COC(=O)[C@@H](C)NC(=O)c1coc(COc2ccc3sc(C)nc3c2)n1` the figure was 2.2%.

With `CN(Cc1cccs1)C(=O)c1ccc(OC2CCN(S(C)(=O)=O)CC2)c(Cl)c1`, the activity is 12.2%. Regarding `O=C1N(CC2CCCCC2)CCCC1(O)CN1CCCOCC1` (stereo not drawn), the activity turned out to be 4.1%.

In the case of `Cc1ccn2c(CNCCN(C)C)c(C(=O)N3CCCCCC3)nc2c1`, the activity was inactive: -0.2%. In the case of `O=C1CCCCN1CC(=O)N1CCOC(Cc2cccc(C(F)(F)F)c2)C1` (stereo not drawn) it was 0.8%; in that of `CNc1cc(C(=O)N2CCOC(Cc3ccccc3Cl)C2)ccn1` (stereo not drawn), 2.7%; in that of `O=c1cc(O)c2ccccc2n1Cc1ccccc1Cl`, inactive: -3.9%.

Consider `CCN(CC)S(=O)(=O)Cc1ccccc1Cl`, for which the activity was inactive: -19.9%. For `Cc1cc(C)n(CCNC(=O)Nc2nnc(-c3ccco3)s2)n1`, the activity stood at 3.1%. With `COCCNC(=O)CCC1CCN(Cc2ccc(COC)o2)CC1` the figure was inactive: -1.5%. Turning to `Cc1cc(C)n2nc(N3C(=O)CCC3=O)nc2n1`, the activity was inactive: -13%. On to `COc1cccc(CC2CN(C(=O)c3oc(C)cc3C)CCO2)c1` (stereo not drawn), for which the activity was 5.5%.

`CC(C)CCCC1CN(C(=O)c2ccc(N3CCN(C)CC3)cc2)CCO1` (stereo not drawn): the activity amounted to 6.6%.

Turning to `CCn1cc(CN2CCCC(CCC(=O)N3CCN(Cc4ccccc4)CC3)C2)cn1` (stereo not drawn), the activity amounted to 8.2%.

Turning to `Cc1ncsc1CCCNCc1cccc(OCC(O)CN2CCOCC2)c1` (stereo not drawn), the activity amounted to 8.2%.

For `N#CCCCN1C(=O)C(O)(CC(=O)c2cccs2)c2ccccc21` (stereo not drawn), the activity amounted to 0.3%. With `O=C(c1ccc(OC2CCN(Cc3ccccn3)CC2)cc1)N1CCCCCCC1` the figure was 3.4%. `O=C(NC(=O)N1CCCCCC1)c1ccc(Cl)cc1`: the activity was inactive: -10.3%. `COc1cc(CNCCOc2cccnc2)ccc1OCC(O)CN(C)C(C)C` (stereo not drawn): the activity is inactive: -3.2%. In the case of `COc1ccc2c(C(=O)NC(C)C)cc(-c3cnn(C)c3)nc2c1` it was 4%; in that of `CC(=O)c1ccc(-c2nnc(CCC(=O)NC(C)Cc3ncccc3C)o2)s1` (stereo not drawn), 6.1%. In the case of `O=C(CCc1ccncc1)N1CCOC(Cc2cccc(C(F)(F)F)c2)C1` (stereo not drawn), the activity was found to be 10.1%. In the case of `COC(=O)[C@@H]1CCCN1Cc1nc(-c2cccc(C(F)(F)F)c2)oc1C` it was inactive: -0.6%; in that of `CN(CCc1ccccn1)C(=O)CCC1CCCN(C(=O)Cc2cccnc2)C1` (stereo not drawn), 4.4%. In the case of `O=C(O)c1ccc(CNCc2ccsc2)cc1` it was inactive: -9%; in that of `O=C(CCCn1nnnc1CN1CCOCC1)NCCC1=CCCCC1`, 8.8%; in that of `CCOC(=O)N1CCC(N2CCOC(CC3CCCCC3)C2)CC1` (stereo not drawn), 6.1%. In the case of `CC(C)c1nc(CNCc2c(C(=O)N3C[C@@H](C)O[C@@H](C)C3)nc3sccn23)cs1` it was 4.9%; in that of `O=C(c1cc[n+]([O-])cc1)N1CCOC(Cc2ccccc2Cl)C1` (stereo not drawn), 3%; in that of `Cc1cc(=O)n2[nH]c(NC(=O)Cc3ccc(Cl)cc3)nc2n1`, inactive: -15.3%.

As for `COc1cccc(-n2cc(CNC(=O)C3CCC(=O)N(C4CC4)C3)cn2)c1` (stereo not drawn), the activity was found to be 1%. Turning to `Clc1ccc(-c2noc(CN3CCC(N4CCCC4)CC3)n2)cc1`, the activity turned out to be 6.2%. Consider `COc1cc(-c2nc(CN3CCN(C(=O)c4ccccc4OC)CC3)c(C)o2)ccc1F`, for which the activity is 5.8%.

As to `CC(C)n1c(CN2CCOCC2)nc2ccccc21`, the activity amounted to 0.4%. With `COCC(C)NC(=O)C1CCN(S(=O)(=O)c2ccc(F)cc2)CC1` (stereo not drawn) the figure was 9.6%; with `COc1cc(CNCCN2CCCCC2=O)ccc1OCC(O)CN1CCCC1` (stereo not drawn), 3.1%; with `Cc1cc(C)nc(NCCC(=O)O)n1`, inactive: -9.6%. Regarding `CCN(Cc1nccn1C)C(=O)c1cc(-c2cn[nH]c2)nc2cc(F)ccc12`, the activity amounted to 3%. With `Cc1cc(C)n(CCCNC(=O)C2CCC(=O)N(CCCN3CCCC3=O)C2)n1` (stereo not drawn) the figure was 2.7%. With `COc1ccc(N2CCN(Cc3nc(N)nc(Nc4ccc(F)cc4)n3)CC2)cc1` the figure was 1.9%; with `CC(C)(C)CN1CCCC(O)(CNCc2ccncc2)C1=O` (stereo not drawn), inactive: -0.9%.

Take `COc1cccc(CNCC2CCOCC2)c1OCC(O)CN1CCOCC1` (stereo not drawn): the activity is inactive: -2.1%. Regarding `CSc1ccc(C(=O)C2CCCN(C(=O)c3cc(C)oc3C)C2)cc1` (stereo not drawn), the activity was 1.7%. With `CCCn1cc(CN2CCC(CCC(=O)NCC3CCCO3)CC2)c(C)n1` (stereo not drawn), the activity stood at 3.1%. `Cc1cc(C)c(C(=O)N2CCCC(CCC(=O)N(C)CCc3ccccn3)C2)c(=O)[nH]1` (stereo not drawn): the activity is 7.3%. On to `CC(C)Cc1cc(CN2CCN(Cc3ccc(F)c(F)c3)C(CCO)C2)[nH]n1` (stereo not drawn), for which the activity amounted to 0.4%. In the case of `O=C(c1cc2ccccc2oc1=O)N1CCOC(CC2CCCCC2)C1` (stereo not drawn) it was 0.4%; in that of `Cc1cnccc1CN(C)C(=O)c1cc(-c2cn[nH]c2)nc2cc(F)ccc12`, 4.2%. With `COC(=O)CCC(=O)N1CCC2(CCCN(Cc3ccc(C(C)C)cc3)C2)C1` (stereo not drawn) the figure was 5.5%; with `O=C(CSc1nnc(-c2ccco2)o1)Nc1ccc(Br)cc1`, 2.3%; with `COc1ccccc1CN1CCN(Cc2ccc(F)c(F)c2)C(CCO)C1` (stereo not drawn), 0.3%. In the case of `COc1ccc(CNCCCN2CCOCC2)cc1OCC(O)CN1CCCC1` (stereo not drawn) it was 4.6%; in that of `COc1ccc(F)c(CN2CCCC3(CCN(S(=O)(=O)N(C)C)C3)C2=O)c1` (stereo not drawn), 0.3%. Take `COc1ccc(OC)c(Nc2cc(C)nc3ncnn23)c1`: the activity was 0.6%. In the case of `Cc1[nH]n2c(=O)c3c(nc2c1-c1ccc(F)cc1)CCCC3` it was inactive: -2%. In the case of `O=C1CN(Cc2cn(Cc3ccccc3)nc2-c2cc3ccccc3o2)CCN1`, the activity was determined as 6.5%.

As to `CC(C)n1cc(-c2cc(C(=O)N3CCCN(C)CC3)c3cc(F)ccc3n2)cn1`, the activity is inactive: -1.6%. In the case of `CCOC(=O)c1oc2ccc(Cl)cc2c1CN1CCN(c2ncccn2)CC1`, the activity was determined as 2.1%.

`CCNC(=O)c1cccc(OC(C)C)c1`: the activity amounted to 6.5%. In the case of `O=C(CC1CNCCO1)N1CCc2[nH]nc(-c3ccc(Cl)c(Cl)c3)c2C1` (stereo not drawn) it was 9.3%.

With `Cc1nnsc1C(=O)NC1CC(=O)N(CCc2ccccc2)C1` (stereo not drawn), the activity is 2%. For the compound `Cc1ccc(CN2CCN(Cc3ccc4c(c3)OCCO4)CC2CCO)o1` (stereo not drawn), the activity was inactive: -4.2%.

As to `COCCNC(=O)CCC1CCN(Cc2ccc3cc(Cl)ccc3n2)CC1`, the activity was found to be 4.1%.

Consider `CN(CCc1ccccn1)Cc1nc(-c2ccc3c(c2)OCO3)no1`, for which the activity amounted to 4.2%.

For `COc1ccc(CNCCNC(C)=O)cc1OCC(O)CN(C)Cc1ccccc1` (stereo not drawn), the activity was found to be 1.2%.

For `COc1ccc(NC(=O)NC2CC(=O)N(CC(C)(C)C)C2)c(OC)c1` (stereo not drawn), the activity was inactive: -1.6%.

In the case of `C1=Nn2c(nnc2-c2ccncc2)SC(c2ccccc2)=C1`, the activity stood at 2.7%. In the case of `O=C(Cc1cccc(Cl)c1)NC1CCCN(c2ncccn2)C1` (stereo not drawn) it was 2.5%; in that of `CC(C)(C)NC(=O)CN1C(=O)CCC1=O`, inactive: -0.4%.

Turning to `COc1ccccc1CCN1CCC(CN(C)C(=O)CCN2CCCO2)CC1`, the activity was inactive: -1.9%. In the case of `COc1ccc(N2CCN(C(=O)CNC(=O)c3ccc(Cl)cc3)CC2)cc1` it was inactive: -17.6%; in that of `Cc1ccc2c(C(=O)NC3CCN(C)C3=O)cc(-c3cnn(C)c3)nc2c1` (stereo not drawn), 5.5%. With `CCn1ccnc1CN1CCCC(N(C)CCc2ccccc2)C1` (stereo not drawn) the figure was 3.3%. With `Cc1cc(Br)c(S(=O)(=O)NCc2ccncc2)cc1C` the figure was 3.4%. Take `O=S(=O)(c1ccsc1)N1CCc2onc(-c3ccccc3)c2C1`: the activity is inactive: -8.6%.

Consider `O=C(NC1CCCN(C2CCCCCC2)C1)C1CCCC1` (stereo not drawn), for which the activity is 9%. In the case of `CC(=O)N1CCN(c2ncccc2CNCc2ccc(-c3ccco3)cc2)CC1` it was inactive: -3.4%; in that of `O=C(NC1CC(=O)N(Cc2cccc3ccccc23)C1)c1ccncc1` (stereo not drawn), 8.9%; in that of `Cc1ccccc1CC(=O)NCC(C)C`, inactive: -16%.

Take `Cc1cc(NC(=O)CSc2ccccc2N)ccc1Cl`: the activity was inactive: -8%. For the compound `CC(=O)c1cc(CC(=O)N2CCCC(CCC(=O)NC3CC3)C2)cs1` (stereo not drawn), the activity came out at 1.3%. With `O=C(c1cn(Cc2ccc(Cl)cc2)nn1)N1CCCCCCC1` the figure was 0.2%; with `COCCCn1c(CN2CCC(N3CCSCC3)CC2)cnc1S(C)(=O)=O`, 10.1%; with `COc1cccc(CN2CCCC(O)(CNC3CCCC3)C2=O)c1` (stereo not drawn), 2.1%. In the case of `CCN(CC)CCNCc1ccc(OCC(O)CN(C)C(C)C)c(OC)c1` (stereo not drawn) it was 0.6%. In the case of `O=C(CSc1ncccn1)N1CCc2onc(-c3ccc(Cl)cc3)c2C1` it was 10.7%; in that of `COc1ccc(CNCc2ccc(C)o2)c(OCC(O)CN2CCCC2)c1` (stereo not drawn), 2.2%; in that of `COc1cc(CNCCC(C)C)ccc1OCC(O)CN1CCOCC1` (stereo not drawn), 4.7%. With `COC(=O)CCC(C)N1CCC(CCC(=O)N2CCN(c3ccccc3)CC2)CC1` (stereo not drawn), the activity was found to be 4.5%. In the case of `Cc1nonc1N1CCN(Cc2cn[nH]c2-c2cc3ccccc3o2)CC1` it was 7.6%; in that of `CN1CCC(C2CCN(Cc3cn[nH]c3C3CCCCC3)CC2)C1` (stereo not drawn), 4.3%; in that of `CCN(CCn1cccn1)C(=O)C1CCC(=O)N(CCCc2ccccc2)C1` (stereo not drawn), inactive: -0.4%. In the case of `Cc1cnc(C)c(N2C[C@H]3OC(=O)N(C4CCCC4)[C@H]3C2)n1` it was 7.1%; in that of `Cc1nonc1CN(C)C(=O)c1cc(-c2cn[nH]c2)nc2cc(F)ccc12`, 6.1%. With `COc1cccc(-c2cnnc(NCCc3ccccc3F)n2)c1` the figure was 7.9%; with `O=C(c1cc(F)ccc1F)C1CCCN(C(=O)C2=CCCC2)C1` (stereo not drawn), 7.4%; with `COc1ccc(F)cc1S(=O)(=O)Nc1cccc(C)n1`, inactive: -10.7%. In the case of `CC(=O)NCC(=O)N1CCC2(CCCN(Cc3cccc(F)c3F)C2=O)C1` (stereo not drawn), the activity came out at 1.7%. In the case of `COc1ccccc1CNc1nc2c([nH]1)c(=O)n(C)c(=O)n2C`, the activity is 1%.
